Experimental data published in paper PMC12650660 (Biomolecules, 2025).

Assay: general procedure: Fmoc solid-phase peptide synthesis; preloaded HN-L-Pro-2-CTC resin (0.82 mmol/g); HATU/DIPEA; DIC/DMAP for on-resin esterification
Settings: whole synthesis; for final HPLC purity: analytical HPLC, 214 nm

Substance | isolated yield [%] | final HPLC purity [%]
simplified malacidin, Gly9 insertion, D-Asp8 L-Asp8 | 1.6 | 86
simplified malacidin, Gly6 insertion, D-Asp9 L-Asp9 | 1.9 | 91
